According to paper PMC4930613:
No constants are given. Whether binding was seen depends on the method and setting. Binding seen in cells or lysates may run through a third protein. Some results given as binding are weak or reduced against the parent protein; the word gives no strength.

Experiments:
[1] = molecular target: T1, endogenous SNPH (mouse brain) (mouse (endogenous in mouse brain)) (UniProt Q80U23); assay: co-IP; endogenous proteins, mitochondrial fraction of mouse brain tissue; anti-SNPH immunoprecipitates blotted with anti-SNPH and anti-DISC1; rabbit IgG as negative control
T1 sequence: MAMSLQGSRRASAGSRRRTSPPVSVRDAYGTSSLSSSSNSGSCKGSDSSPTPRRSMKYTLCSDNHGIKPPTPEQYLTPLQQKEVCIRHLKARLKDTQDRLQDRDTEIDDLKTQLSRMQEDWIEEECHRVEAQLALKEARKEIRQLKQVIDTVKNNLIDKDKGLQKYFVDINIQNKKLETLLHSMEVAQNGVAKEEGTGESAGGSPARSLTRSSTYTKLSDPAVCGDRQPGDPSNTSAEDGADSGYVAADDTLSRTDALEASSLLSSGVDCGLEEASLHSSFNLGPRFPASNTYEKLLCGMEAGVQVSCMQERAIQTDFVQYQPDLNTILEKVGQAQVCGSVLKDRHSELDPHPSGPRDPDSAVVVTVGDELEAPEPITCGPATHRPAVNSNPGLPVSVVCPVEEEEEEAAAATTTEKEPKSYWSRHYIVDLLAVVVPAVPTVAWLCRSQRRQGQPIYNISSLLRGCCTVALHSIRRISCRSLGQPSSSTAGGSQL

[2] = molecular target: T1, endogenous SNPH (mouse brain) (mouse (endogenous in mouse brain)); assay: co-IP; endogenous proteins, whole lysates of mouse brain tissue; anti-SNPH immunoprecipitates blotted with anti-SNPH and anti-DISC1

B1: endogenous DISC1 (mouse brain) (protein, UniProt Q811T9 1-852)
chain: MQGGGPRGAPIHSPSHGADSGHGLPPAVAPQRRRLTRRPGYMRSTAGSGIGFLSPAVGMPHPSSAGLTGQQSQHSQSKAGQCGLDPGSHCQASLVGKPFLKSSLVPAVASEGHLHPAQRSMRKRPVHFAVHSKNDSRQSERLTGSFKPGDSGFWQELLSSDSFKSLAPSLDAPWNKGSRGLKTVKPLASPALNGPADIASLPGFQDTFTSSFSFIQLSLGAAGERGEAEGCLPSREAEPLHQRPQEMAAEASSSDRPHGDPRHLWTFSLHAAPGLADLAQVTRSSSRQSECGTVSSSSSDTGFSSQDASSAGGRGDQGGGWADAHGWHTLLREWEPMLQDYLLSNRRQLEVTSLILKLQKCQEKVVEDGDYDTAETLRQRLEELEQEKGRLSWALPSQQPALRSFLGYLAAQIQVALHGATQRAGSDDPEAPLEGQLRTTAQDSLPASITRRDWLIREKQRLQKEIEALQARMSALEAKEKRLSQELEEQEVLLRWPGCDLMALVAQMSPGQLQEVSKALGETLTSANQAPFQVEPPETLRSLRERTKSLNLAVRELTAQVCSGEKLCSSLRRRLSDLDTRLPALLEAKMLALSGSCFSTAKELTEEIWALSSEREGLEMFLGRLLALSSRNSRRLGIVKEDHLRCRQDLALQDAAHKTRMKANTVKCMEVLEGQLSSCRCPLLGRVWKADLETCQLLMQSLQLQEAGSSPHAEDEEQVHSTGEAAQTAALAVPRTPHPEEEKSPLQVLQEWDTHSALSPHCAAGPWKEDSHIVSAEVGEKCEAIGVKLLHLEDQLLGAMYSHDEALFQSLQGELQTVKETLQAMILQLQPTKEAGEASASYPTAGAQETEA
binding [1]: binds
binding [2]: binds
